Taken from: PubChem BioAssay AID686943 (Drosophila RNAi Screening Center, 2013)
The screen tested about 23,000 reagents; this is a random part of those that have a named target and a result. 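Extra replicates exist only for a retested subset of genes; insulin dose and duration not given; both raised and lowered dpERK matter.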 Not all columns of the deposit are shown. Reagent sequences are not shown. The record does not give: the amount of reagent, the time to read-out.

Test: 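Search across the genome for regulators of signalling from receptor tyrosine kinase to ERK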 (primary screen)
Cells: Drosophila S2R+ haemocyte-like cells expressing YFP-tagged ERK (Rolled)
Knock-down reagent: long dsRNA against Drosophila genes
Challenge: insulin stimulation versus unstimulated cells; dose and duration not given
Measured: 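Antibody staining for doubly phosphorylated ERK divided by ERK-YFP signal, as plate z-scores, in insulin-treated and untreated cells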
Direction: replicate 1, z-score of dpERK with insulin: higher = more active ERK per ERK-YFP after insulin

"replicate 1, z-score of dpERK with insulin",predicted target,dsRNA
-0.23,Nurf-38,DRSC04629
0.15,kappaTry,DRSC06146
0.86,Vha16-5,DRSC02986
-0.18,drm,DRSC00277
-2.35,RpL9,DRSC03418
1.07,CG12170,DRSC12199
0.52,Trmt6,DRSC03272
-0.23,Arpc3A,DRSC15596
-0.99,Usp2,DRSC20590
0.24,Usp2,DRSC20632
0.35,Usp2,DRSC20633
-2.49,Rdh,DRSC08063
-1.75,Rdh,DRSC08434
0.9,Las,DRSC11772
0.19,CG13875,DRSC08345
0.21,CG8298,DRSC07138
0.44,Ir31a,DRSC22358
0.37,kdn,DRSC18328
-2.61,RpL35A,DRSC12302
-0.12,polyph,DRSC06254
-0.03,CG11035,DRSC14287

Targets above whose target name begins with K or k:
"replicate 1, z-score of dpERK with insulin",predicted target,dsRNA
0.15,kappaTry,DRSC06146
0.37,kdn,DRSC18328

Additional results:
"replicate 1, z-score of dpERK with insulin",predicted target,dsRNA
0.4,CG3257,DRSC04351
0.13,CG31710,DRSC01089
-0.4,CG31710,DRSC22863
1.22,CG13743,DRSC05139
-0.14,CG13743,DRSC06414
2.14,CG13743,DRSC22775
-0.35,ft,DRSC00819
0.41,Cbp20,DRSC16601
0.06,NimC4,DRSC01945
-1.12,Lgr3,DRSC15704
-1.75,Lgr3,DRSC15706
1,Pgls,DRSC19769
-0.09,Cad74A,DRSC10636
0.05,CG4582,DRSC15605
0.48,corolla,DRSC20102
-0.1,CG1271,DRSC08290
0.44,CG32187,DRSC10521
0.81,Yip1d1,DRSC02166
